Measurements from patent US20130059773A1, “COMPOUNDS FOR THE TREATMENT OF INFLAMMATION AND NEUTROPENIA” (priority 2010, published 2013).
Results are given in words; binding and its absence hold for the method and conditions named. Binding seen in cells or lysates may run through a third protein. Some binding calls cover weakened binding; strength is not graded here.

Chains of the proteins cited; added tags and fusions are not shown. Lines headed by an entry give the natural chain unless they say otherwise; changes in a name come on top.
UniProt Q14790: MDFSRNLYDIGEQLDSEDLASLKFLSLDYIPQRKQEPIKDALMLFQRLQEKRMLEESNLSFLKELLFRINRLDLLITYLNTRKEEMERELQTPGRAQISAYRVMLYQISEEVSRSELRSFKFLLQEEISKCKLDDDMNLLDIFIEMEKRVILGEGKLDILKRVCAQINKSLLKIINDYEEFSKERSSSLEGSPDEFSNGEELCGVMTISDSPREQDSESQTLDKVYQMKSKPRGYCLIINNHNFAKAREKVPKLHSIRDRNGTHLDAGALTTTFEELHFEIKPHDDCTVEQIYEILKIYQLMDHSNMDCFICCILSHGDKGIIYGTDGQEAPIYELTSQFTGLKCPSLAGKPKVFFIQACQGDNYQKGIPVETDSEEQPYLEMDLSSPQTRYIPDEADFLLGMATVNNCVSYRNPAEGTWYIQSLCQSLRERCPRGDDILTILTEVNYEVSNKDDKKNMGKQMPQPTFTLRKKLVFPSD
UniProt P55211: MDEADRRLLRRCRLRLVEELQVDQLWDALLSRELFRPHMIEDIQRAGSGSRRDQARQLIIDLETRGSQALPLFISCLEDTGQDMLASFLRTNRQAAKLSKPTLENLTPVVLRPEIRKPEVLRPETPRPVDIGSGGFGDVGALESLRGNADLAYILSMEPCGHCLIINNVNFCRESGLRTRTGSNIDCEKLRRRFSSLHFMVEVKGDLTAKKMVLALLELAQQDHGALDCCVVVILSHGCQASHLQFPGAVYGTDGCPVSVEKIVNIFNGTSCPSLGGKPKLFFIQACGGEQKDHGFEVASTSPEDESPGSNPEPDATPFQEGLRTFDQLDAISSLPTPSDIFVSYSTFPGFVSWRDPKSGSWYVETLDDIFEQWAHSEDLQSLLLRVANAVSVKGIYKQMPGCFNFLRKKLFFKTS
UniProt P12004: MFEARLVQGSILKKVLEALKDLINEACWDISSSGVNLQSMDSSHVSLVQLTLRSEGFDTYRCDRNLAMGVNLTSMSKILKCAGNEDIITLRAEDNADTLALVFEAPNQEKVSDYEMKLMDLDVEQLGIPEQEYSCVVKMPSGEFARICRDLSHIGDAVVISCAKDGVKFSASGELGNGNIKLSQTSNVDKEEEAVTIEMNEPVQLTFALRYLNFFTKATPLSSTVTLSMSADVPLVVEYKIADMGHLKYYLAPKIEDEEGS

What was measured:
procaspase-8 (human) [1] = target: procaspase-8 (human) (UniProt Q14790); experiment: co-immunoprecipitation from neutrophil cytosol (anti-PCNA IP, western blot) and reciprocal anti-procaspase IP
procaspase-9 (human) [2] = target: procaspase-9 (human) (UniProt P55211); experiment: as above
procaspase-10 (human) [3] = target: T1, procaspase-10 (human) (UniProt Q92851); experiment: as above
T1 sequence (looked up): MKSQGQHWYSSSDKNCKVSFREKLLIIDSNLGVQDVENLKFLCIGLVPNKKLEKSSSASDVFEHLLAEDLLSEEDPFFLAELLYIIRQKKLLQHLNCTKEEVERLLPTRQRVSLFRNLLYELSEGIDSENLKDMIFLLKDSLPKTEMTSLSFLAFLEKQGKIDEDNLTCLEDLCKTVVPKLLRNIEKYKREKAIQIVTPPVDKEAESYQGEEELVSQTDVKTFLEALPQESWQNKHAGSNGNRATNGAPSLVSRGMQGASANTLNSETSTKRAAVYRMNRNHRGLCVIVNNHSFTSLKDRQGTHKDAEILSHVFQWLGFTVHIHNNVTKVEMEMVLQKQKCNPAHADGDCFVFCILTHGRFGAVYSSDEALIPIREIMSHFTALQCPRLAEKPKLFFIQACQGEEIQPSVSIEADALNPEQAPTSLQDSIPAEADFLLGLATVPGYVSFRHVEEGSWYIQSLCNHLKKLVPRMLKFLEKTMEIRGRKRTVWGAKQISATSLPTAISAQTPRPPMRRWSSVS

procaspase-3 (human) [4] = target: T2, procaspase-3 (human) (UniProt P42574); experiment: as above
T2 sequence (looked up): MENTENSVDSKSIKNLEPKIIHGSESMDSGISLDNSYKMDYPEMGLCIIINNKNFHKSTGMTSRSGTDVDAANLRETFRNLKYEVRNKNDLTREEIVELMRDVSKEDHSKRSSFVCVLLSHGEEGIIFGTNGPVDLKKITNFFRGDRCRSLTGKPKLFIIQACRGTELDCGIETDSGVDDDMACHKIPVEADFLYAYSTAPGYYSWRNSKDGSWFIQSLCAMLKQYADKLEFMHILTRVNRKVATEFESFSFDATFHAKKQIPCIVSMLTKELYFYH

procaspase-8 (human) [5] = target: procaspase-8 (human) (UniProt Q14790); experiment: co-immunoprecipitation from neutrophil cytosol, western blot
procaspase-9 (human) [6] = target: procaspase-9 (human) (UniProt P55211); experiment: as above
procaspase-10 (human) [7] = target: T1, procaspase-10 (human); experiment: as above
procaspase-8 (human) [8] = target: procaspase-8 (human) (UniProt Q14790); experiment: co-immunoprecipitation from neutrophil cytosol (discussion of the results)
procaspase-9 (human) [9] = target: procaspase-9 (human) (UniProt P55211); experiment: as above
procaspase-10 (human) [10] = target: T1, procaspase-10 (human); experiment: as above
procaspase-3 (human) [11] = target: T2, procaspase-3 (human); experiment: as above

Measured: binding

Proliferating Cell Nuclear Antigen (PCNA), wild type, cellular (cytosolic PCNA of human neutrophils) (from UniProt P12004 1-261)
binds: all assays above
